Experimental data published in paper PMC4569737, “Involvement of a eukaryotic-like ubiquitin-related modifier in the proteasome pathway of the archaeon Sulfolobus acidocaldarius” (Nature Communications, 2015).

The chains behind the UniProt entries cited, without tags or fusion partners. Where a name states a change or a piece, a line headed by the entry shows the natural chain unless it says otherwise.
UniProt Q4JAX6: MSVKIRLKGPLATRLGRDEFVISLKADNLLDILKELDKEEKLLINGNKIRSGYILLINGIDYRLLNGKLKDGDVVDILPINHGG
UniProt Q4JAY3: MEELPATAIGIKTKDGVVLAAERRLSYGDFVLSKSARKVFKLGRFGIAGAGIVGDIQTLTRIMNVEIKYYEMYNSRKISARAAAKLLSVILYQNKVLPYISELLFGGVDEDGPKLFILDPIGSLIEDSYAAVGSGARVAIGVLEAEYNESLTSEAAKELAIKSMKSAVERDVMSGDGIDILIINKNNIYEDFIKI
UniProt Q4JC81: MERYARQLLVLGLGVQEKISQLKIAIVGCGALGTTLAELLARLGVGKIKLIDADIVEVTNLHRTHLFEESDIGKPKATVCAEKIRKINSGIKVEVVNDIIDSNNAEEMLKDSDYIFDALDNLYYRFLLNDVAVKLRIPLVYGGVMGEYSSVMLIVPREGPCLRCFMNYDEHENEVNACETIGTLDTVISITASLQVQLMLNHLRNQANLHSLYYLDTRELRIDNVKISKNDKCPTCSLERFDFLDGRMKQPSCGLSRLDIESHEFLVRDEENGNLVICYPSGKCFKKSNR

Columns and labels:
[1] = target: N-terminally His-tagged Urm1 (Saci0669) of S. acidocaldarius (S. acidocaldarius) (UniProt Q4JAX6); assay: pull-down; 30 μg N-terminally His-tagged Urm1 and 90 μg untagged ELSA/Uba4p/ThiF incubated at 70 °C for 1 h with or without 2.5 mM ATP, retrieved on Ni-NTA agarose; Coomassie gel and anti-His blot; both purified
[2] = target: Saci0662 20S proteasome β-subunit with its N-terminal pro-peptide, C-terminally His-tagged (S. acidocaldarius) (UniProt Q4JAY3); assay: co-purification on Ni-NTA IMAC after co-expression; untagged Saci0613 α co-expressed in E. coli with one C-terminally His-tagged β-subunit (full or ΔN); Ni-NTA agarose IMAC of the heat-clarified lysate

| Molecule | binding [1] | binding [2] |
| --- | --- | --- |
| ELSA/Uba4p/ThiF E1-like enzyme (Saci0179) of S. acidocaldarius, untagged (from UniProt Q4JC81) | binds | – |
| Saci0613 20S proteasome α-subunit, untagged (natural protein, S. acidocaldarius, UniProt Q4JB24 1-242, looked up, 20S proteasome α-subunit, S. acidocaldarius DSM639, Saci0613; also called Saci0613 α; 0613 α-subunit; source: E. coli Rosetta (DE3) pLysS, co-expressed with β-subunit(s); in heat-clarified lysate, and purified as part of the complex (Ni-NTA IMAC, size exclusion chromatography)) MALGPAAMGYDRAITIFSPDGSLYQVDYAFEAVKRGWTTLGVKTKSGVVLLAEKRKATQLLDVDGIEKIFMLDDHVGCTFAGLASDGRILIDYARSQALQHRLIYDEPISIEYLTKVISDVKQAYTQHGGVRPFGVALIVGGIDKGKQPKLLMTEPSGQFMPYYAVAIGQGGYTATEYLEKNYKEDLDIQSTILLALRALMATLKPGEKLNYSSVEIGYADVDSGTFKKLTTEERSDLLQKI | – | binds |

No constants are given. Whether binding was seen depends on the method and setting. Binding can be weak; no strength is given. For some assays here: Binding seen in cells or lysates may run through a third protein. For some assays here: Where a sequence is shown, tags or fusion partners need not be part of it.
